Assay results from PubChem BioAssay AID1671190 (National Center for Advancing Translational Sciences (NCATS), 2021).
The whole screen tested about 580,000 compounds, of which about 6,100 (1.1%) were called active. The inconclusive results got no clear call from the source; some entries with a clear call stand among them for comparison. Calls follow the shape of the dose curve; as a rule, active = well fitted inhibition curve with a large enough effect; inconclusive = small, poorly fitted or top-dose-only effect, or another doubt; inactive = no such curve, though single readings can be large or run the other way. Potencies of inconclusive entries are doubtful fits and often do not repeat.

Sequences of proteins named here, by UniProt entry; tags and fusion partners are left off. A change or cut given only in a name is not applied to a line headed by its entry.
UniProt P18054: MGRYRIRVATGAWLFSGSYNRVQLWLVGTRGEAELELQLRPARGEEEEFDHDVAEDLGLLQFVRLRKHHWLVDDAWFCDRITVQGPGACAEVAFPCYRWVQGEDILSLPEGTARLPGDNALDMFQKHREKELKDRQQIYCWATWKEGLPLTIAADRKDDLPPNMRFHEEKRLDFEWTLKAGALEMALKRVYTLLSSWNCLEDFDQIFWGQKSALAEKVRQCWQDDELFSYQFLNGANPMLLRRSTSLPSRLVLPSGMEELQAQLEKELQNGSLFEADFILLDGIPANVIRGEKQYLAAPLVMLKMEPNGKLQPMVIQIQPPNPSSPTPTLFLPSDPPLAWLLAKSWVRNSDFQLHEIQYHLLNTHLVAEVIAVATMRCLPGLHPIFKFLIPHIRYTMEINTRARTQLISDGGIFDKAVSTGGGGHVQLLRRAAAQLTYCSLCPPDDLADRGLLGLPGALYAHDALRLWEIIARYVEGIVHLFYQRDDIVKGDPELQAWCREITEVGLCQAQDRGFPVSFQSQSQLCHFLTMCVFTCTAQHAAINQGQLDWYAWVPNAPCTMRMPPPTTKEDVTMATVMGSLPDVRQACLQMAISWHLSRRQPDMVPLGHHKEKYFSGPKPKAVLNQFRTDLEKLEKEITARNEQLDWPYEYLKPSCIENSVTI

target: Polyunsaturated fatty acid lipoxygenase ALOX12 (Homo sapiens) (UniProt P18054); test: Primary qHTS assay for inhibitors of human arachidonate 12S-lipoxygenase (ALOX12): Round 2; conditions: purified 12hLO, xylenol orange hydroperoxide absorbance; activity change, negative = inhibition: at 108 µM (top of the series) unless noted
Procedure, shortened: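 Hydroperoxide product was detected by ferrous iron/xylenol orange as the 573 to 405 nm absorbance ratio. Arachidonic acid at 40 uM (final) was turned over for 30 min at room temperature by 150 nM human 12hLO, pH 7.0 Hepes buffer, after 15 min compound preincubation.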
% is scaled to controls: 0 for no effect and ±100 for the full control effect; potency is read from the fitted curve at half-maximal effect.

SMILES | Potency | activity change, negative = inhibition
COc1cc(/C=C(/C#N)c2nc3ccccc3[nH]2)ccc1OCc1ccc(C(=O)O)o1 | inconclusive: 12.6 µM [inhibitor, full curve, poor fit] | –
Cc1cccc(NC(=O)Cc2c(C)nc3nc(-c4cccs4)nn3c2C)c1C | inconclusive: 56.2 µM [inhibitor, single point] | –
Cc1cc(C)cc(OCC(=O)Nc2ccccc2C(=O)N2CCOCC2)c1 | inconclusive: 39.8 µM [inhibitor, partial curve, poor fit] | –
COc1ccccc1-n1cc2ccc([N+](=O)[O-])cc2n1 | inactive | –
O=C(NC1CCCCC1)N1CC(=O)N2[C@H](CO)[C@H](c3ccc(Br)cc3)[C@@H]2C1 | inconclusive: 44.7 µM [inhibitor, partial curve] | –
CC(=O)N1c2ccc(S(=O)(=O)N3CCC(C(=O)Nc4ccccn4)CC3)cc2CC1C (configuration not stated) | inactive | –
O=C(Cn1nc(Cl)nc1Cl)c1cc2ccccc2oc1=O | inconclusive: 50.1 µM [inhibitor, partial curve, poor fit] | –
O=C(O)CCC(NC(=O)c1ccc(Cl)cc1)C(=O)O (configuration not stated) | inconclusive: 56.2 µM [inhibitor, partial curve, poor fit] | –
Cc1ccc(S(=O)(=O)N(C)c2ccc(C(=O)NCCc3ccccc3)cc2)cc1 | inconclusive: 79.4 µM [inhibitor, partial curve, poor fit] | –
CC(Cc1cccs1)NC(=S)Nc1ccc(Cl)cc1 (configuration not stated) | active: 39.8 µM | –
CCOC(=O)c1c(CSc2ccccc2)n(C)c2cc(Br)c(OCC(O)CNC(CO)(CO)CO)cc12 (configuration not stated) | inactive | –
Cc1ccc([N+](=O)[O-])cc1S(=O)(=O)Nc1cccc(C#Cc2cccs2)c1 | inconclusive: 8.91 µM [inhibitor, full curve] | –
O=C(/C=C/c1c[nH]c2ccccc12)C(F)(F)F | inconclusive: 39.8 µM [inhibitor, partial curve, poor fit] | –
Nc1nc(OCC(F)(F)F)cc(Oc2ccccc2F)n1 | inconclusive: 0.199 µM [inhibitor, full curve, poor fit] | –
COc1ccccc1NC(=S)N1CCN(C(=O)c2ccco2)CC1 | – | inconclusive: -35.8% [inhibitor]
NC(=O)C1CCN(c2oc(-c3ccccc3F)nc2S(=O)(=O)c2ccc(Cl)cc2)CC1 | inconclusive: 28.2 µM [inhibitor, partial curve, poor fit] | –
CC(C)C[C@H]1CN([C@@H](Cc2ccccc2)CN2CCC[C@H]2CN2C(=O)C(=O)NC[C@@H]2Cc2ccc(O)cc2)C(=O)C(=O)N1CC1CCCCC1 | inconclusive: 44.7 µM [inhibitor, partial curve, poor fit] | –
COc1cc2c(cc1OC)C(c1cccc([N+](=O)[O-])c1)=NCC2 | inconclusive: 126 µM [inhibitor, single point] | –
CC1CC(C)(C)CC2(C1)NC(=O)N(CC(=O)N1CCN(S(=O)(=O)c3cccc(Cl)c3Cl)CC1)C2=O (configuration not stated) | inconclusive: 100 µM [inhibitor, partial curve, poor fit] | –
O=C1NCCC[C@@H]1NC(=O)[C@H]1CN(C(=O)c2cccc(F)c2)CCN1C(=O)c1cncnc1 | inconclusive: 39.8 µM [inhibitor, partial curve, poor fit] | –
CCCCCn1nc(C(=O)Nc2ccc(C(=O)NC(C)(C)C)cc2)c2ccccc2c1=O | inconclusive: 126 µM [inhibitor, single point] | –

Sorted by heavy-atom count (high to low): three of the compounds above.
SMILES | Potency | activity change, negative = inhibition
CCCCCn1nc(C(=O)Nc2ccc(C(=O)NC(C)(C)C)cc2)c2ccccc2c1=O | inconclusive: 126 µM [inhibitor, single point] | –
Nc1nc(OCC(F)(F)F)cc(Oc2ccccc2F)n1 | inconclusive: 0.199 µM [inhibitor, full curve, poor fit] | –
COc1ccccc1-n1cc2ccc([N+](=O)[O-])cc2n1 | inactive | –

Following part.

SMILES | Potency | activity change, negative = inhibition
CCC1CCCCN1CCCNC(=O)c1ccc(/C=C2/Sc3ccccc3NC2=O)cc1 (configuration not stated) | inconclusive: 44.7 µM [inhibitor, partial curve, poor fit] | –
Cc1cc2nc(NC3=NCN(CCc4ccccc4)CN3)nc(C)c2cc1C | inactive | –
CC1(CI)CSc2sc3ccccc3[n+]21 (configuration not stated) | inconclusive: 5.01 µM [inhibitor, full curve, poor fit] | –
Fc1ccc(N2CCN(c3ncnc4c3nc3n4CCCCC3)CC2)cc1 | inactive | –
COc1ccc(CCNC(=O)c2cc3c(s2)-c2ccccc2OC3)cc1OC | inactive | –
CC(C)NC(=O)COc1ccc2c(c1)C(=O)CC(C)(C)O2 | inactive | –
CNC(=O)[C@@H](C1CCCCC1)N1CCC[C@H]1C(=O)N1CCN(CCOC)CC1 | active: 15.8 µM | –
Cc1nc(COc2cccc(Cl)c2)sc1C(=O)/C=C/N(C)C | inconclusive: 35.5 µM [inhibitor, partial curve, poor fit] | –
Cc1ccc(NC(=S)Nc2ccccc2)nc1 | active: 22.4 µM | –
Cc1nc([N+](=O)[O-])c(SCC(O)CCl)n1Cc1ccc(Cl)cc1 (configuration not stated) | inconclusive: 126 µM [inhibitor, single point] | –
COc1ccc(CN2CC(=O)N(c3ccc(Cl)cc3)C2=S)cc1OC | inactive | –
COC(=O)c1cccc(C(=O)O)n1 | inconclusive: 44.7 µM [inhibitor, single point] | –
CCOc1ccc(NC(=O)Cn2nc(C(N)=O)c3ccccc3c2=O)cc1S(=O)(=O)N1CCCC1 | inconclusive: 44.7 µM [inhibitor, partial curve] | –
CS(=O)(=O)N1CCC(C(=O)NCc2ccco2)CC1 | inactive | –
CC1=NNC(=O)C1CC(=O)N/N=C/C(Br)=C/c1ccccc1 (configuration not stated) | inactive | –
Cc1ccc(-n2nc3c(N4CCC(C(=O)NC(C)c5ccccc5)CC4)nnc(C)c3c2C)cc1 (configuration not stated) | inconclusive: 39.8 µM [inhibitor, partial curve] | –
CC1=C(C(=O)OC(C)(C)C)C(/C(Cl)=C/c2ccccc2)NC(=O)N1 (configuration not stated) | inactive | –
CC(=O)Oc1ccc(-c2csc(Nc3ccc(Cl)cn3)n2)cc1 | inactive | –
CN1CCN(C(=O)CN2CCN(C(C(=O)O)c3cn(CC(=O)O)c4cc(F)ccc34)CC2)CC1 (configuration not stated) | inconclusive: 7.08 µM [inhibitor, full curve, poor fit] | –
CCNc1nc(NC(C)C)nc(NS(=O)(=O)c2ccc(Cl)cc2)n1 | inconclusive: 112 µM [inhibitor, single point] | –
CCN(CC)S(=O)(=O)c1cccc(C(=O)Nc2cc3oc4ccccc4c3cc2OC)c1 | inactive | –
